Our source for the binding values is publication doi:10.1101/2024.05.06.592854.

This experiment concerns the target T1, 3xFLAG-NEK1 (NIMA-related kinase 1), expressed in human motor neurons (hsyn-3XFLAG-NEK1 lentivirus) (human) (UniProt Q96PY6).
T1 sequence: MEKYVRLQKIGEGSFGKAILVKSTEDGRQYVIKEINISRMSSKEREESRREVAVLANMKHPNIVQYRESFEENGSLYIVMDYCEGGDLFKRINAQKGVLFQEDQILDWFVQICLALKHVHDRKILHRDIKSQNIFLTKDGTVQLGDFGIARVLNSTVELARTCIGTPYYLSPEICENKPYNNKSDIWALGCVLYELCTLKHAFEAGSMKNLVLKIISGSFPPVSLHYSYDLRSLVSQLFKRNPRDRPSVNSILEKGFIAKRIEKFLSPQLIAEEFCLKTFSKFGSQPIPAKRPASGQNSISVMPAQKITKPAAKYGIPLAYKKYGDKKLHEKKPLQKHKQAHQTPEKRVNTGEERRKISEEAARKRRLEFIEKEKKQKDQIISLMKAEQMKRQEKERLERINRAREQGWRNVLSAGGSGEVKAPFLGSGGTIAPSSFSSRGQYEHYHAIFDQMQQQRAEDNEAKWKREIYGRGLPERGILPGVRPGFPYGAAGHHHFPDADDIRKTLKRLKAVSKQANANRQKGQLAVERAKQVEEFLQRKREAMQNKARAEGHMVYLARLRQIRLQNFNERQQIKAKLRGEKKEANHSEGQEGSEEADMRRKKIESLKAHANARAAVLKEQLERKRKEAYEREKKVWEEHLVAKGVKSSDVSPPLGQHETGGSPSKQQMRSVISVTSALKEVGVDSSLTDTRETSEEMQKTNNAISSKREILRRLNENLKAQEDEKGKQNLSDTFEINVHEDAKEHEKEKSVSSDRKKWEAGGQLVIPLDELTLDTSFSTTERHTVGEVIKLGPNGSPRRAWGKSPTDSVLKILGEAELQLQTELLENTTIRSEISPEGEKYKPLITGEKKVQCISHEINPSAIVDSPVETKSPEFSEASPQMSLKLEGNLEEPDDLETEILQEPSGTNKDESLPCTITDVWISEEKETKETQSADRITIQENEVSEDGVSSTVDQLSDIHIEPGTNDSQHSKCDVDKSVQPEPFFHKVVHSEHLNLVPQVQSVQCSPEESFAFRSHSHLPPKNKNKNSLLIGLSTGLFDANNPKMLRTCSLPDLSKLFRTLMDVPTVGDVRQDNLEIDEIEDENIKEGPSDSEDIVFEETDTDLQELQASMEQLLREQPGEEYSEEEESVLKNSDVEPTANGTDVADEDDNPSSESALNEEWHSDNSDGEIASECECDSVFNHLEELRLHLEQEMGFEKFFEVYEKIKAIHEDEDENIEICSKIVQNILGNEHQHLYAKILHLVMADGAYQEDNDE
The experiment can be described thus: co-IP.

These are yes or no findings as the source states them, for the method shown. In cells and extracts the contact can be indirect. Tags and fused reporters may be left off the sequences shown.

In the case of γ-tubulin, motor neurons, the binding entry is “no binding”.
